Laboratory results published in publication PMC12391806.
Results are given in words; binding and its absence hold for the method and conditions named. In cells and extracts the contact can be indirect. Some binding calls cover weakened binding; strength is not graded here. Where a sequence is shown, tags or fusion partners need not be part of it.

Protein sequences, listed by entry. Tags and fused reporters are not part of them.
UniProt P49674: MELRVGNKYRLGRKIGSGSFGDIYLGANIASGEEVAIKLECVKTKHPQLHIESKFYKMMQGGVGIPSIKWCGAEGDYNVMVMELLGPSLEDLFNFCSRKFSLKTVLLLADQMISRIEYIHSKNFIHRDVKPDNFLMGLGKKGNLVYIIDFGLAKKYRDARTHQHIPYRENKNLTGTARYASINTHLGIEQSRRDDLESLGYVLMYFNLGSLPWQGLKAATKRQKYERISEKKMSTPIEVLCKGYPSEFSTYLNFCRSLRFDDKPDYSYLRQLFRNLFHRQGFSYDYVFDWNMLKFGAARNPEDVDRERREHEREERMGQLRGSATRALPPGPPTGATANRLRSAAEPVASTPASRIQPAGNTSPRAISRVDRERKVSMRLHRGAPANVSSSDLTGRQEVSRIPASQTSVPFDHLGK

Molecular target: V5-tagged CK1ε (UniProt P49674)
Test: co-IP; HEK293T cotransfected with Flag-SRSF10 (WT) or its truncation mutants and CK1ε-V5; immunoprecipitated with anti-V5 beads (Fig. 8A, B)

| binding | Binder |
| --- | --- |
| binds | Flag-tagged SRSF10 truncation mutant 85 to 170 (domain or fragment, UniProt O75494 85-170) FAQGDRKTPNQMKAKEGRNVYSSSRYDDYDRYRRSRSRSYERRRSRSRSFDYNYRRSYSPRNSRPTGRPRRSRSHSDNDRFKHRNR |
| no binding | Flag-tagged SRSF10 with the 85 to 170 region deleted (protein, UniProt O75494) MSRYLRPPNTSLFVRNVADDTRSEDLRREFGRYGPIVDVYVPLDFYTRRPRGFAYVQFEDVRDAEDALHNLDRKWICGRQIEIQSFSRSKSNSRSRSKSQPKKEMKAKSRSRSASHTKTRGTSKTDSKTHYKSGSRYEKESRKKEPPRSKSQSRSQSRSRSKSRSRSWTSPKSSGH |
